Some of the results follow.
Tests used:
Assay in all cases: log2 fold change, soluble protein after heating vs DMSO (PISA); higher = thermal stabilisation; K562 cells, 10 uM, 30 min; active = over 0.2 and 3.5 SD of the protein, either way, in both replicates (recomputed)
saracatinib = compound: CN1CCN(CCOc2cc(OC3CCOCC3)c3c(Nc4c(Cl)ccc5c4OCO5)ncnc3c2)CC1 [saracatinib]
Procedure, shortened: (§1)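 K562 cells at 2×10^6 cells/mL were treated with 10 μM compound for 30 min. Aliquots were heated for 3 min across 48°C-58°C, pooled, and extracted in PBS with 0.5% NP-40 at 4°C; soluble protein was the supernatant after 21,000xg for 90 min. Soluble protein was quantified by TMTpro 16plex LC-MS/MS with channel sums equalised, and reported as log2 fold change in thermal stability against DMSO controls, with values from duplicates.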

Amino acid sequences for entries named in this document (tags omitted). A change or cut given only in a name is not applied to a line headed by its entry.
UniProt O95721: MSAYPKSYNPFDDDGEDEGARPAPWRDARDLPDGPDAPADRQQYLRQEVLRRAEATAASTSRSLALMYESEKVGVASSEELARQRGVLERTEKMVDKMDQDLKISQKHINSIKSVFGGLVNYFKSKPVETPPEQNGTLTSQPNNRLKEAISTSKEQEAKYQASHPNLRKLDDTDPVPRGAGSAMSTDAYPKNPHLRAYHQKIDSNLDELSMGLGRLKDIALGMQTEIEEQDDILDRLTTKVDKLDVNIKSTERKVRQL
UniProt Q15506: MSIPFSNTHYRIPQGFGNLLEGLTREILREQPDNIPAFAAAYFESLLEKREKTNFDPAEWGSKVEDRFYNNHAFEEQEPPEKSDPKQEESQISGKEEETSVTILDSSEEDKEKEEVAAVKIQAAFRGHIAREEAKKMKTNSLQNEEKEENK
UniProt P09234, whole entry, looked up: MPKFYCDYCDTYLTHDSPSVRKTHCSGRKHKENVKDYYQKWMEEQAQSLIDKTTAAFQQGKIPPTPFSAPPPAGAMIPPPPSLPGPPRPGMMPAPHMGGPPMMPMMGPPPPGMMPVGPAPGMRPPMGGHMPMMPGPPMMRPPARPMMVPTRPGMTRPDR
UniProt O14745: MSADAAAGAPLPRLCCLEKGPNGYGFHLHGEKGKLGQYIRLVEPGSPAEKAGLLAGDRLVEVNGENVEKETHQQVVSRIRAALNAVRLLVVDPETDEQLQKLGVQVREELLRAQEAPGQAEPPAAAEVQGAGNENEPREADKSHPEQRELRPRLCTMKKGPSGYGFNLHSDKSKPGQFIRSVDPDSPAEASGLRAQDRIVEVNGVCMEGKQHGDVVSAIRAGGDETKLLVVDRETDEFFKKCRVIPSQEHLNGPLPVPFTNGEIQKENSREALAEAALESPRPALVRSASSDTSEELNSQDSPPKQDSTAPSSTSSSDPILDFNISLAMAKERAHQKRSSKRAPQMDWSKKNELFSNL
UniProt O75940: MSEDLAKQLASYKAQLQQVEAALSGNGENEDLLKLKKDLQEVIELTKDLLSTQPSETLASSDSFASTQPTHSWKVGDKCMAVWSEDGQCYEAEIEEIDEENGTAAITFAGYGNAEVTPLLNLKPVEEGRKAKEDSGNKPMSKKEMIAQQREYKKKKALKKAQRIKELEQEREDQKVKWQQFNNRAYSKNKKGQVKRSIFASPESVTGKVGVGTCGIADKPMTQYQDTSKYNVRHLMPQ
UniProt O76070, whole entry, looked up: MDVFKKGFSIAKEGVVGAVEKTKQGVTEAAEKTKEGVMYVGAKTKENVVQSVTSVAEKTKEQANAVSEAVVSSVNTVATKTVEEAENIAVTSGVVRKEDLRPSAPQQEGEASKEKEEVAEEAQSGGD
UniProt Q9Y5X2: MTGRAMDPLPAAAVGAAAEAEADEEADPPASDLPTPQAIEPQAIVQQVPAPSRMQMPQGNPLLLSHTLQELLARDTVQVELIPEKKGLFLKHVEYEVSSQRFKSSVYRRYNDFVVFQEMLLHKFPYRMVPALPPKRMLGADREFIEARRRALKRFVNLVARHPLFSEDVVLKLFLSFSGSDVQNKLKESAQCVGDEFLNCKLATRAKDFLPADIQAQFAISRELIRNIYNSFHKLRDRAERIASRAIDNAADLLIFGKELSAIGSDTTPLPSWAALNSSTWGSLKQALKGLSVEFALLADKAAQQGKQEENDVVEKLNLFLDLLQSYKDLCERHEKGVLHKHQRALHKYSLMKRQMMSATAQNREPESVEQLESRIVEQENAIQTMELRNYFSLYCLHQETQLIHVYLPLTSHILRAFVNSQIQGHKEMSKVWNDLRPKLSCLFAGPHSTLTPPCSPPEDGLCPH
UniProt Q7KZF4: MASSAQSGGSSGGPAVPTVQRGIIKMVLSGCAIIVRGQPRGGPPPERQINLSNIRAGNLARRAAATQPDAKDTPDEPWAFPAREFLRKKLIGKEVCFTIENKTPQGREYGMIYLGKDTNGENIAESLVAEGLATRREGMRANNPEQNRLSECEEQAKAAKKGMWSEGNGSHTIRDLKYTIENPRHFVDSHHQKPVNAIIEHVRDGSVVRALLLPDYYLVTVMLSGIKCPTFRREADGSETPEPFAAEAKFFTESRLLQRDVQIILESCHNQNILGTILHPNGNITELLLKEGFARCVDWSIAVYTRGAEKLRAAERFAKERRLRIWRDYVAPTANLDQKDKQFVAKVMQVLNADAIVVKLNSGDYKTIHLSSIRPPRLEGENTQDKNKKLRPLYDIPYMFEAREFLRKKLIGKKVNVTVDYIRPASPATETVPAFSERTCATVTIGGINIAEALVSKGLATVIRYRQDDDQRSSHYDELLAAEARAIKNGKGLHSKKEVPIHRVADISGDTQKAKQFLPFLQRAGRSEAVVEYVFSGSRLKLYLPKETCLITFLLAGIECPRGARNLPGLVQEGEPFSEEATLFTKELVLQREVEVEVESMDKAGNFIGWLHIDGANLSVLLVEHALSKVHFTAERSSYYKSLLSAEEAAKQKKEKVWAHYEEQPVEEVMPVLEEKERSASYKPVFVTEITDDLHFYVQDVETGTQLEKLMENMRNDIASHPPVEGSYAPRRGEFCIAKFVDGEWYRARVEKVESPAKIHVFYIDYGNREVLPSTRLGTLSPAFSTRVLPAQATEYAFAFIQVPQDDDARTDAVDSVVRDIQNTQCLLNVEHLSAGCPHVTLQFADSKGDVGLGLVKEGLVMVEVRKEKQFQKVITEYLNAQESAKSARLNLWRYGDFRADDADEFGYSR
UniProt Q96H20: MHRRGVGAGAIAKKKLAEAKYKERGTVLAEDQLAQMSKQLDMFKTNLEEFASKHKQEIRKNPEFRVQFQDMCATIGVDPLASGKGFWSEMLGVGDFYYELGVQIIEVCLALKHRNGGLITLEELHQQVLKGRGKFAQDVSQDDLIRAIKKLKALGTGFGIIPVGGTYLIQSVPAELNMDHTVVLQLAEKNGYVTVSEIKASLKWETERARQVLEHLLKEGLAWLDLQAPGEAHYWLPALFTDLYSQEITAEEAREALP
UniProt Q9BX66: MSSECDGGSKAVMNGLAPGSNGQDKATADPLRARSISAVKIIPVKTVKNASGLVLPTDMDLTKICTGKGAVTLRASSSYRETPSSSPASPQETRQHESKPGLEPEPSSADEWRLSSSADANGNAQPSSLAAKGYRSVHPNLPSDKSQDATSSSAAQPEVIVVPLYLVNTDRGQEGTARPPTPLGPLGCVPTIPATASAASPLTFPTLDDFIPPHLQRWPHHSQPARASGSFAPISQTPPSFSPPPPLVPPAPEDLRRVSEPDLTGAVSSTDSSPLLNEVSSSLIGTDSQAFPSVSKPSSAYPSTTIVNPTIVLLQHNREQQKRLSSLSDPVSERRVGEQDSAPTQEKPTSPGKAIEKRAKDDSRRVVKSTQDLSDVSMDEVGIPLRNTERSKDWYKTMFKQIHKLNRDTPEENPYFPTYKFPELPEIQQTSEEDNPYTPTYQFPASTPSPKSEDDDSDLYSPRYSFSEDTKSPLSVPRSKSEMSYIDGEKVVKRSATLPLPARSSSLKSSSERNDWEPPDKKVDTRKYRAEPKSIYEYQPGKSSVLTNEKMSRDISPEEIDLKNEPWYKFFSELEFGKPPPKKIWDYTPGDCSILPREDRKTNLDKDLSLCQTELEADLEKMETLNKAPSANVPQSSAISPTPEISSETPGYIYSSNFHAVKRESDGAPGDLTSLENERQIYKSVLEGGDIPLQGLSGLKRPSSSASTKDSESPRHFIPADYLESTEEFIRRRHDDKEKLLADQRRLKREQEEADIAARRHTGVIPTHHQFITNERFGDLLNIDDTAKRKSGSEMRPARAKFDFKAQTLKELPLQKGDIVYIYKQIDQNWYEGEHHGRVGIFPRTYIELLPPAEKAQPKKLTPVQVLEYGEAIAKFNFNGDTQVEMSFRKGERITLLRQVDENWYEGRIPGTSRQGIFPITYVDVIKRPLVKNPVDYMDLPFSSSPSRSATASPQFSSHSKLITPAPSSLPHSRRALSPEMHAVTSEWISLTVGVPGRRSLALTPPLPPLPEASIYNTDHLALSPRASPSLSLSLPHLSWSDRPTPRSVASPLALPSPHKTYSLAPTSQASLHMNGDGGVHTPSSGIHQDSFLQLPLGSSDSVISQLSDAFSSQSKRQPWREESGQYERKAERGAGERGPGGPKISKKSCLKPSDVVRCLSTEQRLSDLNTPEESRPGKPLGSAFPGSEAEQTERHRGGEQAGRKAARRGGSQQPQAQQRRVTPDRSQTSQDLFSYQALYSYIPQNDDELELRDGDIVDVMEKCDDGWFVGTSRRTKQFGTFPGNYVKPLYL
UniProt Q15036: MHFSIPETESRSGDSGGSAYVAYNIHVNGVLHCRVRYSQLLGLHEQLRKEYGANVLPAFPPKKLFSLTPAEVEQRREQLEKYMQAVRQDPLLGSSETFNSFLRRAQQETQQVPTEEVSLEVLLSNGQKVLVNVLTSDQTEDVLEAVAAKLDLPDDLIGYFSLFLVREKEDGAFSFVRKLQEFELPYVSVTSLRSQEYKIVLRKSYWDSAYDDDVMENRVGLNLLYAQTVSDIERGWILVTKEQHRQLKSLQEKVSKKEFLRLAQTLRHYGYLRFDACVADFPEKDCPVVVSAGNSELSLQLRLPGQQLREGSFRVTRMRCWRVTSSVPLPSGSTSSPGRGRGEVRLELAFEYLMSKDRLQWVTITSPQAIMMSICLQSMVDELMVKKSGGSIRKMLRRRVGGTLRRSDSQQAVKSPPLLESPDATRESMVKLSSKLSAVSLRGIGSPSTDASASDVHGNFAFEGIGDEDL
UniProt P62314, whole entry, looked up: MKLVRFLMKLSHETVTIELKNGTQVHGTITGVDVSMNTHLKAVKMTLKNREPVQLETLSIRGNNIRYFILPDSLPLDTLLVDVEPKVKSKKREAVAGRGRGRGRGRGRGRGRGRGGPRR
UniProt P62316, whole entry, looked up: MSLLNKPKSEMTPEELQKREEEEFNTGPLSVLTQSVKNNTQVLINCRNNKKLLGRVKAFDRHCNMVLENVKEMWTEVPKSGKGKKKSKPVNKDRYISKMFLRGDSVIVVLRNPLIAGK
UniProt Q6GMV2: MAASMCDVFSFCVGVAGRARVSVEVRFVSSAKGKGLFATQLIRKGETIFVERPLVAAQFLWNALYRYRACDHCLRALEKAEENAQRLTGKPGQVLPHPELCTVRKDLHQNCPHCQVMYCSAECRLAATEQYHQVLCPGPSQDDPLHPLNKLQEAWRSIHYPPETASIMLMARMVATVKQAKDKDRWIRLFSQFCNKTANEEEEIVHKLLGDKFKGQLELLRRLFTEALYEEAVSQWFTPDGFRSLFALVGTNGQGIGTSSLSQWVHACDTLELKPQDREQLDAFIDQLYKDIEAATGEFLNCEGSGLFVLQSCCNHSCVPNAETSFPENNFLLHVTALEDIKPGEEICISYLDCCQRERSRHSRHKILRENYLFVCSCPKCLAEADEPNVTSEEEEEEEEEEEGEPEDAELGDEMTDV
UniProt Q96KF7: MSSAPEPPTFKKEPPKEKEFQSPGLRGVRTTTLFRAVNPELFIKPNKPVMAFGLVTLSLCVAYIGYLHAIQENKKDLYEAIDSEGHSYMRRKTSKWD
UniProt Q00796: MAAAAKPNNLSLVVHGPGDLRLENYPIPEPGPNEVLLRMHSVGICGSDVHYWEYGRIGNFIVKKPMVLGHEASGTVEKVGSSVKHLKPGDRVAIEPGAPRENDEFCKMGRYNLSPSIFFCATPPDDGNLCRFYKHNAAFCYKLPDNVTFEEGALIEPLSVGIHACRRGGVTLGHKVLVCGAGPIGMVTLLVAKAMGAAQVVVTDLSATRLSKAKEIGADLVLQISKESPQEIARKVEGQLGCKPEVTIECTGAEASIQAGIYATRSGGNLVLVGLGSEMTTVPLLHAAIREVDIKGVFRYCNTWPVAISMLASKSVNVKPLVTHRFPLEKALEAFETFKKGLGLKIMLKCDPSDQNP
UniProt Q8IYB5: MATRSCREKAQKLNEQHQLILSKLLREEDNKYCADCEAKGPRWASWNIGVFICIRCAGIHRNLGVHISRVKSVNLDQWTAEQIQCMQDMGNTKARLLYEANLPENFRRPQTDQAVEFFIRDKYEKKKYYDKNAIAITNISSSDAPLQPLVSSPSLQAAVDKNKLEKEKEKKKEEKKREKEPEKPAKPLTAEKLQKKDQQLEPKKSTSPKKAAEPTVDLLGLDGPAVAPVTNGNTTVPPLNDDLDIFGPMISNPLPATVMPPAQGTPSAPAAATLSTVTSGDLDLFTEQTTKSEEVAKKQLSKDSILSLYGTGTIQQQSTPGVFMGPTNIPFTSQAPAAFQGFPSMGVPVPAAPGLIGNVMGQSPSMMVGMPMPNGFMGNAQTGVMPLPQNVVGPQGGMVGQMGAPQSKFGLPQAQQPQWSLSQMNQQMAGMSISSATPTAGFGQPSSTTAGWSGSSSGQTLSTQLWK
UniProt Q15599: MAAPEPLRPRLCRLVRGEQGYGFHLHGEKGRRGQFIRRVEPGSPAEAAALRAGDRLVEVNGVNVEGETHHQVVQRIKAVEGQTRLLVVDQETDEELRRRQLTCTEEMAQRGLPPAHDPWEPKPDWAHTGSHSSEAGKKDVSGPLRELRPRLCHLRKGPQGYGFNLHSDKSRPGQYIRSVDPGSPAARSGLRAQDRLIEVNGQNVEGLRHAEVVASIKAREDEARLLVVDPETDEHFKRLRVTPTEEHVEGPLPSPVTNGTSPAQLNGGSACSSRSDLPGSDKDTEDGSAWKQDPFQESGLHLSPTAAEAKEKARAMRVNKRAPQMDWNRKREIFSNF

sotrastaurin = compound: CN1CCN(c2nc(C3=C(c4c[nH]c5ccccc45)C(=O)NC3=O)c3ccccc3n2)CC1 [sotrastaurin]
Procedure, shortened: as §1

alvocidib = compound: CN1CC[C@H](c2c(O)cc(O)c3c(=O)cc(-c4ccccc4Cl)oc23)[C@H](O)C1 [alvocidib]
Procedure, shortened: as §1

Tubastatin A = compound: CN1CCc2c(c3ccccc3n2Cc2ccc(C(=O)NO)cc2)C1 [Tubastatin A]
Procedure, shortened: as §1

[1] = compound: CNC(=O)C1=CC=CC=C1NC2=NC(=NC=C2Cl)NC3=C(C=C(C=C3)N4CCOCC4)OC
Procedure, shortened: as §1

defactinib = compound: CNC(=O)c1ccc(Nc2ncc(C(F)(F)F)c(NCc3nccnc3N(C)S(C)(=O)=O)n2)cc1 [defactinib]
Procedure, shortened: as §1

rucaparib = compound: CNCc1ccc(-c2[nH]c3cc(F)cc4c3c2CCNC4=O)cc1 [rucaparib]
Procedure, shortened: as §1

[2] = compound: CNc1nc(-c2ccc3c(N)n[nH]c3c2)cc(N2C[C@@H](C(=O)NC3CCCCC3)CC[C@H]2C)n1
Procedure, shortened: as §1

encorafenib = compound: COC(=O)N[C@@H](C)CNc1nccc(-c2cn(C(C)C)nc2-c2cc(Cl)cc(NS(C)(=O)=O)c2F)n1 [encorafenib]
Procedure, shortened: as §1

[3] = compound: COC(=O)[C@H](CCSC)NC(=O)C1=C(C=C(C=C1)NC[C@H](CS)N)C2=CC=CC=C2
Procedure, shortened: as §1

Measured: log2 fold change

SNAP29 (UniProt O95721)
inactive: saracatinib 0.017 | sotrastaurin -0.006 | alvocidib 0.004 | Tubastatin A -0.029 | [1] -0.037 | defactinib -0.014 | rucaparib -0.009 | [2] -0.06 | encorafenib -0.012 | [3] 0.029

SPA17 (UniProt Q15506)
inactive: saracatinib 0.03 | sotrastaurin -0.057 | alvocidib 0.017 | Tubastatin A 0.072 | [1] -0.02 | defactinib -0.046 | rucaparib -0.043 | [2] -0.128 | encorafenib -0.03 | [3] 0.098

SNRPC (UniProt P09234)
inactive: saracatinib 0.064 | sotrastaurin 0.013 | alvocidib 0.124 | Tubastatin A -0.004 | [1] -0.038 | defactinib 0.102 | rucaparib 0.023 | [2] -0.075 | encorafenib -0.093 | [3] 0.004

SMC3 (UniProt Q9UQE7)
inactive: saracatinib 0.008 | sotrastaurin -0.047 | alvocidib -0.073 | Tubastatin A 0.007 | [1] -0.024 | defactinib -0.055 | rucaparib -0.069 | [2] -0.019 | encorafenib 0.032 | [3] 0.02

SNCA (UniProt P37840)
inactive: saracatinib 0.022 | sotrastaurin 0.063 | alvocidib -0.016 | Tubastatin A 0.026 | [1] -0.055 | defactinib -0.009 | rucaparib -0.024 | [2] -0.024 | encorafenib 0.001 | [3] 0.051

SLC9A3R1 (UniProt O14745)
inactive: saracatinib -0.01 | sotrastaurin 0.043 | alvocidib 0.011 | Tubastatin A 0.001 | [1] -0.004 | defactinib -0.021 | rucaparib -0.031 | [2] -0.011 | encorafenib -0.028 | [3] 0.007

SMG7 isoform 4 (UniProt Q92540)
inactive: saracatinib -0.045 | sotrastaurin -0.116 | alvocidib -0.345 | Tubastatin A -0.003 | [1] 0.087 | defactinib -0.131 | rucaparib 0.171 | [2] 0.019 | encorafenib 0.101 | [3] -0.065

SOD2 (UniProt P04179)
inactive: saracatinib 0.027 | sotrastaurin 0.056 | alvocidib 0.05 | Tubastatin A -0.022 | [1] -0.001 | defactinib 0.024 | rucaparib -0.037 | [2] -0.079 | encorafenib 0.02 | [3] 0.035

SMNDC1 (UniProt O75940)
inactive: saracatinib 0.031 | sotrastaurin 0.073 | alvocidib 0.091 | Tubastatin A -0.038 | [1] 0.01 | defactinib 0.153 | rucaparib 0.039 | [2] -0.036 | encorafenib -0.027 | [3] 0.012

SNCG (UniProt O76070)
inactive: saracatinib 0.025 | sotrastaurin 0.037 | alvocidib 0.002 | Tubastatin A -0.007 | [1] -0.075 | defactinib -0.007 | rucaparib -0.028 | [2] -0.043 | encorafenib -0.017 | [3] 0.041

SNX8 (UniProt Q9Y5X2)
inactive: saracatinib 0.073 | sotrastaurin 0.063 | alvocidib -0.01 | Tubastatin A -0.081 | [1] -0.026 | defactinib -0.046 | rucaparib -0.057 | [2] -0.083 | encorafenib 0.017 | [3] 0.056

SND1 (UniProt Q7KZF4)
inactive: saracatinib -0.244 | sotrastaurin -0.067 | alvocidib 0.409 | Tubastatin A 0.044 | [1] 0.042 | defactinib 0.43 | rucaparib 0.8 | [2] 0.195 | encorafenib 0.288 | [3] -0.073

2 consecutive records from above, quoted:
SOD2 (UniProt P04179)
inactive: saracatinib 0.027 | sotrastaurin 0.056 | alvocidib 0.05 | Tubastatin A -0.022 | [1] -0.001 | defactinib 0.024 | rucaparib -0.037 | [2] -0.079 | encorafenib 0.02 | [3] 0.035

SMNDC1 (UniProt O75940)
inactive: saracatinib 0.031 | sotrastaurin 0.073 | alvocidib 0.091 | Tubastatin A -0.038 | [1] 0.01 | defactinib 0.153 | rucaparib 0.039 | [2] -0.036 | encorafenib -0.027 | [3] 0.012

Next results follow.

SNF8 (UniProt Q96H20)
inactive: saracatinib 0.031 | sotrastaurin -0.026 | alvocidib -0.047 | Tubastatin A -0.031 | [1] -0.038 | defactinib -0.033 | rucaparib -0.062 | [2] -0.032 | encorafenib -0.006 | [3] 0.014

SMPD2 (UniProt O60906)
inactive: saracatinib -0.028 | sotrastaurin 0.035 | alvocidib -0.047 | Tubastatin A -0.028 | [1] -0.052 | defactinib -0.032 | rucaparib 0.016 | [2] -0.038 | encorafenib -0.018 | [3] 0.027

SMC1A (UniProt Q14683)
inactive: saracatinib -0.015 | sotrastaurin -0.045 | alvocidib -0.064 | Tubastatin A 0.004 | [1] -0.01 | defactinib -0.082 | rucaparib -0.053 | [2] -0.019 | encorafenib 0.037 | [3] 0.004

SNU13, A0A3B3IUA2
inactive: saracatinib -0.075 | sotrastaurin 0.022 | alvocidib 0.087 | Tubastatin A -0.005 | [1] 0.003 | defactinib 0 | rucaparib -0.201 | [2] -0.08 | encorafenib -0.064 | [3] 0.063

SORBS1 isoform 12 (UniProt Q9BX66)
inactive: saracatinib 0.059 | sotrastaurin -0.099 | alvocidib -0.015 | Tubastatin A 0.008 | [1] 0.015 | defactinib -0.046 | rucaparib -0.07 | [2] -0.038 | encorafenib -0.03 | [3] 0.027

SNX17 (UniProt Q15036)
inactive: saracatinib -0.015 | sotrastaurin 0.06 | alvocidib 0.064 | Tubastatin A -0.257 | [1] 0.005 | defactinib -0.195 | rucaparib 0.073 | [2] -0.037 | encorafenib 0.275 | [3] -0.03

SNRPD1 (UniProt P62314)
inactive: saracatinib 0.027 | sotrastaurin 0.045 | alvocidib 0.111 | Tubastatin A -0.027 | [1] 0.009 | defactinib 0.166 | rucaparib 0.044 | [2] -0.115 | encorafenib -0.035 | [3] 0.042

SMC1B isoform 3 (UniProt Q8NDV3)
inactive: saracatinib -0.059 | sotrastaurin -0.014 | alvocidib -0.036 | Tubastatin A 0.036 | [1] -0.039 | defactinib -0.111 | rucaparib 0.062 | [2] -0.036 | encorafenib -0.096 | [3] -0.007

SNRNP200 (UniProt O75643)
inactive: saracatinib 0.009 | sotrastaurin -0.037 | alvocidib 0.078 | Tubastatin A -0.035 | [1] 0.066 | defactinib 0.121 | rucaparib 0.049 | [2] -0.081 | encorafenib 0.014 | [3] 0.007

SNRPD2 (UniProt P62316)
inactive: saracatinib 0.1 | sotrastaurin 0.031 | alvocidib 0.134 | Tubastatin A -0.023 | [1] 0.074 | defactinib 0.107 | rucaparib 0.046 | [2] -0.069 | encorafenib -0.019 | [3] 0.043

SMYD5 (UniProt Q6GMV2)
inactive: saracatinib 0.018 | sotrastaurin -0.005 | alvocidib -0.044 | Tubastatin A -0.033 | [1] -0.005 | defactinib -0.038 | rucaparib -0.09 | [2] -0.061 | encorafenib -0.008 | [3] -0.021

SMIM8 (UniProt Q96KF7)
inactive: saracatinib 0.026 | sotrastaurin 0.043 | alvocidib -0.103 | Tubastatin A -0.002 | [1] -0.032 | defactinib -0.019 | rucaparib 0.064 | [2] 0.029 | encorafenib 0.041 | [3] -0.061

SMARCC1 (UniProt Q92922)
inactive: saracatinib -0.073 | sotrastaurin -0.12 | alvocidib -0.151 | Tubastatin A -0.048 | [1] -0.043 | defactinib -0.163 | rucaparib 0.06 | [2] 0.09 | encorafenib 0.085 | [3] -0.021

SORD (UniProt Q00796)
inactive: saracatinib 0.042 | sotrastaurin 0.066 | alvocidib -0.004 | Tubastatin A -0.034 | [1] -0.049 | defactinib 0.002 | rucaparib -0.014 | [2] -0.01 | encorafenib -0.014 | [3] 0

SMAP1 isoform 2 (UniProt Q8IYB5)
inactive: saracatinib 0.05 | sotrastaurin -0.025 | alvocidib -0.05 | Tubastatin A -0.014 | [1] 0.118 | defactinib -0.078 | rucaparib -0.038 | [2] -0.075 | encorafenib 0.025 | [3] 0.033

SLC9A3R2 (UniProt Q15599)
inactive: saracatinib 0.022 | sotrastaurin 0.017 | alvocidib 0.01 | Tubastatin A 0.014 | [1] -0.05 | defactinib -0.007 | rucaparib 0.036 | [2] -0.027 | encorafenib 0.013 | [3] 0.038

SMN1 (UniProt Q16637)
inactive: saracatinib 0.023 | sotrastaurin 0.121 | alvocidib 0.113 | Tubastatin A 0.018 | [1] 0.046 | defactinib 0.056 | rucaparib 0.233 | [2] -0.039 | encorafenib 0.121 | [3] -0.032

SNRPC (UniProt Q5TAL2)
inactive: saracatinib -0.023 | sotrastaurin -0.12 | alvocidib 0.079 | Tubastatin A 0.202 | [1] -0.143 | defactinib 0.034 | rucaparib -0.015 | [2] -0.01 | encorafenib -0.055 | [3] -0.015

— the supplement of paper PMC10849652
